Laboratory results published in paper PMC10333293, “Membrane recruitment of the polarity protein Scribble by the cell adhesion receptor TMIGD1” (Communications Biology, 2023).
No constants are given. Whether binding was seen depends on the method and setting. In cells and extracts the contact can be indirect. Binding calls can cover weak binding; strength is not graded here.

Target: T1, hTMIGD1 full length (AA 1-262) (human) (UniProt Q6UXZ0)
T1 sequence: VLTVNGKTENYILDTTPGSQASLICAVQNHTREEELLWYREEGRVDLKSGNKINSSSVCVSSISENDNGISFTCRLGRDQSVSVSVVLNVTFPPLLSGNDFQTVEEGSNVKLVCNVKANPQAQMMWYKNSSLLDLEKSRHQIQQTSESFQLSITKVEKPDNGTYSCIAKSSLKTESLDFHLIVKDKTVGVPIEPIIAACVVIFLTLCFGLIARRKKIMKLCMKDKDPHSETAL
Assay: co-IP; HEK293 cells stably transfected with TMIGD1 constructs and transiently transfected with Scrib constructs, Erbin or Lano/LRRC1; IP with anti-TMIGD1 antibodies; in one experiment with or without TAK-243; lysis in 25 mM Tris-HCl pH 7.4, 1% NP-40, 150 mM NaCl, 5% glycerol

binding	Substance
binds	hScrib/PDZ (AA 665-1630) (from UniProt Q14160-1) (domain or fragment)
binds weakly	hScrib/WT (AA 2-1630) (from UniProt Q14160-1)
